“Also recorded” adds a separate entry of the source. Read-outs that look alike come from different tables or passages of the source.
Columns and labels:
[1] = Overcharge protection (redox shuttle) cycling; conditions: for Quantitative Measure of Overcharge Protection (Redox Shuttle) Performance: 100% overcharge, 0.08 M, testing in progress (FIGS. 10, 11)
[2] = Half-cell (coin cell vs lithium metal) cycling
[3] = 100% overcharge; BCF3EPT at ca. 3.8 V; data from refs 29, 30, 32; cited from earlier work

Row | SMILES | Practical for Overcharge Protection? [1] | Quantitative Measure of Overcharge Protection (Redox Shuttle) Performance [3] | also measured
1 | CCN1c2ccc(C#N)cc2Sc2cc(C#N)ccc21 [BCF3(4-CF3C6H4)PT] | Yes, because |  | Quantitative Measure of Overcharge Protection (Redox Shuttle) Performance [1]: >70 cycles at 100%
2 | CCN1c2ccc(C(F)(F)C(F)(F)F)cc2Sc2cc(C(F)(F)C(F)(F)F)ccc21 [BCF3CF2EPT] | Yes, because |  | Quantitative Measure of Overcharge Protection (Redox Shuttle) Performance [1]: >10 cycles at 100%
3 | CCN1c2ccc(C(F)(F)F)cc2Sc2cc(C(F)(F)F)ccc21 [BCF3EPT, 3,7-bis(trifluoromethyl)-N-ethylphenothiazine] | Yes, because | ~250 cycles of | cycles with charge capacity unchanged ([2]; 0.25 M in 1.0 M LiBF4 in PC, coin cell vs Li, 3.5-4.2 V, 0.1 mA): more than 250 cycles; coulombic efficiency ([2]; coin cell, 250 cycles): 80-90%; energy efficiency ([2]; coin cell, 250 cycles): 80-90%; voltage efficiency ([2]; coin cell, stabilized): ca. 97%; Quantitative Measure of Redox Flow Performance: coulombic efficiency ([2]; in half cells): date with >99%; Quantitative Measure of Redox Flow Performance: charge/discharge cycles completed ([2]; in half cells, to date): >250 cycles
4 | CCN1c2ccc(Br)cc2Sc2cc(Br)ccc21 [DBrEPT] | No, it is | 2-5 cycles | 
5 | CCN1c2ccc(C#N)cc2Sc2cc(C#N)ccc21 [DCNEPT] | No, they are | 0-1 cycles | 
6 | CCN1c2ccc(Cl)cc2Sc2cc(Cl)ccc21 [DClEPT] | practical; also recorded: Yes, because | 19-37 cycles | 
7 | CCN1c2ccc([N+](=O)[O-])cc2Sc2cc([N+](=O)[O-])ccc21 [DNO2EPT] | No, they are | 0 cycles | 
8 | CCN1c2ccccc2Sc2ccccc21 [EPT] | practical; also recorded: Yes, because | 65-160 cycles | 
9 | CN1c2ccccc2Sc2ccccc21 [MPT] | No, although | 5 cycles | 
10 | c1ccc2c(c1)Nc1ccccc1S2 [PT] | No, because | 2-3 cycles | 
